# Primary screen of a compound library

Amino acid sequences for entries named in this document (tags omitted).
UniProt P9WNZ1, whole entry: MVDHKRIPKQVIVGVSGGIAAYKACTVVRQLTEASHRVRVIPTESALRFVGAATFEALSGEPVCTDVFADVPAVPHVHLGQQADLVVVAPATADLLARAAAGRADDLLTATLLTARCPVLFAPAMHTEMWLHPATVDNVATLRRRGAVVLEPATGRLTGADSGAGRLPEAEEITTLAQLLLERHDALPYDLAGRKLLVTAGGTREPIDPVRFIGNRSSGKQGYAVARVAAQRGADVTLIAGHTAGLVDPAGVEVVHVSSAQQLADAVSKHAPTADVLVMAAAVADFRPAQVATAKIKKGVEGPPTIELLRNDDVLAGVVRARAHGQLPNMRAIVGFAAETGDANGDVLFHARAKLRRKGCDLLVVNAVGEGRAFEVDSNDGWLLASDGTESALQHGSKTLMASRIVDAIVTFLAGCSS
UniProt P9WFT3, whole entry: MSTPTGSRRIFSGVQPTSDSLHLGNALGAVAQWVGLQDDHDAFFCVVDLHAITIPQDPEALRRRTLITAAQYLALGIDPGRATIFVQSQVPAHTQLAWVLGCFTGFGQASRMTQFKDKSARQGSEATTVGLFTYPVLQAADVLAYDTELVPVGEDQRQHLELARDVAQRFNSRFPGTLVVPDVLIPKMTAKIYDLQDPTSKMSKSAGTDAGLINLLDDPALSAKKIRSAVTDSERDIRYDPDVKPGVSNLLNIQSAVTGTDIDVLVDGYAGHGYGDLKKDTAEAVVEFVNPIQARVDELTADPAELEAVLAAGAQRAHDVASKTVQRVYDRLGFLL

From ChEMBL document CHEMBL3988442, “University of Dundee, Small-Polar-MMV Screening Library” (2021).

Values are the deposited “Percent Effect”, in %. The controls that fix the scale are not given in the record; negative values are as filed. The compounds are a random part of those screened. A dash means the value is not listed here; it may have been measured.

CoaBC: 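Enzyme assay of CoaBC with a phosphate dye (Biomol Green) read at 650 nm. Target: Coenzyme A biosynthesis protein CoaBC, Mycobacterium tuberculosis (UniProt P9WNZ1). Compounds at 30 µM. Direction is inferred from only a few compounds that gave an IC50; most scored high, so higher reads as stronger inhibition. Most strong results did not repeat in a second test. Size under these conditions: about 67,000 compounds, about 40 of them at 50% or above in at least one test.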
MtTrpRS: 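Enzyme assay of tryptophanyl-tRNA synthetase; the read-out is not stated. Target: Tryptophan-tRNA ligase, Mycobacterium tuberculosis (UniProt P9WFT3). Tested at 10 µM. Higher most likely means stronger inhibition; the record gives no direction and few retests gave an IC50. Of about 65,000 compounds tested this way, about 64 (0.098%) reached 50% or more in at least one test.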

| # | compound | CoaBC | MtTrpRS |
|---|---|---|---|
| 1 | `CC(C)n1cc(C(=O)NCCc2cn3ccsc3n2)cn1` | -15.7 | -6.182 |
| 2 | `CN1C(=O)c2cccc(NC(=O)c3cccc(S(C)(=O)=O)c3)c2C1=O` | 3.479 | 1.25 |
| 3 | `Cc1nc(CN2CCOC3(CCCC3)C2)oc1C` | 0.4959 | 2.203 |
| 4 | `Cc1nnc(SCC(=O)c2cc3c(cc2Cl)NC(=O)C3)s1` | 2.025 | 2.931 |
| 5 | `CC(=O)c1ccc(CN2C[C@@H](CN3CCC(O)CC3)[C@@H](CO)C2)cc1` | - | 0.2064 |
| 6 | `CSCC[C@H](N)C(=O)N1CC(Oc2ccccc2C)C1` | -0.8696 | 0.867 |
| 7 | `Cc1noc(CN(C)CC(c2cccs2)N2CCOCC2)n1` (stereo unspecified) | 3.571 | -9.74 |
| 8 | `CN1CCC(N(C)CCC(=O)N2CCC(Oc3ccc(Cl)cc3)CC2)C1` (stereo unspecified) | 1.951 | -4.244 |
| 9 | `COCC1CCN(S(=O)(=O)N2C[C@H](c3ccccc3)[C@@H](N)C2)CC1` | 2.056 | 2.204 |
| 10 | `C[C@]1(O)CCN(Cc2ncccc2F)C[C@@H]1Oc1cccc(F)c1` | 6.304 | -5.961 |
| 11 | `Cc1nc(CN2CCN(CC(=O)Nc3c(C)cccc3C)CC2)no1` | 6.41 | 1.642 |
| 12 | `CCOC(=O)c1nc(CC(=O)Nc2ccccc2)no1` | -27.6 | 0.4045 |
| 13 | `COc1ccc(N2CCN(C(=O)COc3c(C)occc3=O)CC2)cc1` | 1.519 | -1.295 |
| 14 | `CS(=O)(=O)c1ccc(CNC(=O)N2CCC(C(N)=O)C2)cc1` (stereo unspecified) | -3.856 | 1.338 |
| 15 | `Cc1cnn(CCNCC(O)COc2c(Cl)cccc2Cl)c1` (stereo unspecified) | -1.312 | 2.292 |
| 16 | `Cc1cc(C)nc(N2CCC(Cn3cc(C(=O)N(C)C)cn3)CC2)n1` | -1.051 | -4.147 |
| 17 | `CC(C)c1nccn1CCC(=O)NCC(C)(O)c1ccco1` (stereo unspecified) | -4.018 | -3.406 |
| 18 | `CN(Cc1cnn(C)c1)CC(O)c1ccc2c(c1)OCCCO2` (stereo unspecified) | 0.4854 | -5.176 |
| 19 | `CNC(=O)C1CCCCN1C(=O)c1sc(-c2ccc(C)o2)nc1C` (stereo unspecified) | 7.337 | 17.18 |
| 20 | `O=C1C(NS(=O)(=O)c2cc(F)cc(F)c2)CCN1Cc1ccccc1` (stereo unspecified) | 4.37 | -2.439 |
| 21 | `Cc1ccc(N2CC3(COCCN(Cc4cnn(C)c4)C3)OCC2=O)s1` (stereo unspecified) | -1.895 | -2.789 |
| 22 | `Cn1cc(C(C)(O)CNc2ccccn2)cn1` (stereo unspecified) | -5.835 | -2.886 |
| 23 | `Cc1cc(C)n(CCCNC(=O)C2CCCO2)n1` (stereo unspecified) | 10.42 | -2.346 |
| 24 | `CC(=O)N1CCC(Cc2cncc(-c3c(C)n[nH]c3C)n2)C1` (stereo unspecified) | 11.19 | -2.261 |
| 25 | `CC1CCCN(c2ccc(C(N)=O)cc2NC(=O)CC2=CCNCC2)C1` (stereo unspecified) | 4.8 | -5.635 |
| 26 | `N#Cc1cc(S(N)(=O)=O)ccc1NC1CCc2cc(Cl)ccc21` (stereo unspecified) | -8.841 | 0.3112 |
| 27 | `CC(C)(CO)CNC(=O)c1cc(-c2cc[nH]n2)n2ccccc12` | -7.298 | 1.671 |
| 28 | `CCn1c(C2CCCN(Cc3cc(C)cc(C)c3)C2)nn(C)c1=O` (stereo unspecified) | 4.292 | 3.958 |
| 29 | `O=C(NCC(O)c1ccc(F)cc1F)c1cccnc1O` (stereo unspecified) | 1.463 | -1.806 |
| 30 | `CC1CCc2nn(CCNC(=O)Cc3ccccc3F)c(=O)cc2C1` (stereo unspecified) | -39.63 | 5.355 |
| 31 | `CC(C)=CCN1CC2(CCN(Cc3ncc[nH]3)CC2)CC1=O` | -5.882 | 2.744 |
| 32 | `CC(C)[C@@H]1CN(C2CCN(Cc3ccccc3)CC2)C[C@H]1NS(C)(=O)=O` | 6.263 | 2.015 |
| 33 | `COCCN1CCC(c2nc3ccc(-c4ccccc4)cn3n2)CC1` | 5.302 | -6.306 |
| 34 | `Cc1oc(C)c(C(=O)Nc2ccccn2)c1C` | 1.935 | -1.737 |
| 35 | `CCOc1ccccc1-n1c(C2CC2)n[nH]c1=O` | 3.89 | 0.4591 |
| 36 | `CNC(=O)[C@H]1C[C@@H]2CN(C(=O)c3ccncc3F)C[C@@H]2N1C` | 4.187 | -6.132 |
| 37 | `Cc1nccn1C1CCCN(C(=O)c2ccc3nncn3c2)C1` (stereo unspecified) | -4.774 | 4.576 |
| 38 | `COC(=O)c1sccc1S(=O)(=O)NCC1(O)CCOc2ccccc21` (stereo unspecified) | 0.2132 | -3.493 |
| 39 | `CN(CCc1cccs1)C(=O)Nc1cccc(S(C)(=O)=O)c1` | -2.427 | -4.549 |
| 40 | `CCC1(C)Cc2ccccc2-c2nc(NCCCO)nc(O)c21` (stereo unspecified) | 2.785 | 5.794 |
| 41 | `Cc1noc(C)c1CN(C)C(=O)c1n[nH]c(N)c1-c1ccccc1` | -3.155 | -1.008 |
| 42 | `Clc1snnc1CN1CCCCC1Cn1cncn1` (stereo unspecified) | -2.571 | -3.855 |
| 43 | `O=C(Cc1ccc(CO)cc1)N1CCN(c2ccccc2Cl)C(=O)C1` | 2.314 | 0.7158 |
| 44 | `Cc1ccc(CN2CC3(CCN(C(=O)Cc4ccc(Cl)cc4)C3)C2)o1` | -2.469 | 0.4537 |
| 45 | `Cn1c(CN2CCOC(Cn3cncn3)C2)nc2ccccc21` (stereo unspecified) | -12.63 | 9.648 |
| 46 | `Cn1ccc(N2CCCC(NC(=O)c3ccsc3)C2=O)n1` (stereo unspecified) | 8.221 | 3.701 |
| 47 | `CCC(C(=O)NCc1ccccn1)N(c1cccc(C)c1)S(C)(=O)=O` (stereo unspecified) | 2.314 | -4.77 |
| 48 | `CC(=O)N1CCc2ccccc2C1CC(=O)NCc1nnc(C)o1` (stereo unspecified) | -2.885 | -0.9132 |
| 49 | `O=C(NCCNc1ncccn1)N1CCN(Cc2cccnc2)CC1` | 5.813 | 5.243 |
| 50 | `CNCc1ccc([C@@H]2CN(C(C)=O)C[C@H]2C(N)=O)cc1` | -0.7177 | -4.818 |
| 51 | `Cn1nnn(-c2ccc(NS(=O)(=O)c3ccc(F)c(Cl)c3)cc2)c1=O` | -1.48 | 4.483 |
| 52 | `CC(=O)N1CCCC(Cc2cncc(Br)c2)CC1` (stereo unspecified) | 2.778 | 1.087 |
| 53 | `c1ncn(CC2CN(CCCOc3ccc4c(c3)OCO4)CCO2)n1` (stereo unspecified) | -6.335 | -0.8045 |
| 54 | `Cc1ccc(C#N)c(N2CCC(c3nccn3CCN(C)C)CC2)n1` | -8.036 | -0.3552 |
| 55 | `COc1ccc(NC(=O)C(C)(C)C)cc1OCc1cccnc1` | 0.9926 | -0.4442 |
| 56 | `O=C1CCC2(CCOC2)CN1Cc1ccc2nsnc2c1` (stereo unspecified) | -6.612 | 2.031 |
| 57 | `O=C(CN1CCNCC1)N1CC[C@@H](c2ccc3ccccc3c2)[C@H](O)C1` | -39.29 | 3.375 |
| 58 | `c1cnc(N2CC[C@@H]3[C@@H]2CCN3Cc2cccs2)nc1` | 4.863 | -3.735 |

4 of the entries, repeated:

{"compound": "Cc1oc(C)c(C(=O)Nc2ccccn2)c1C", "CoaBC": 1.935, "MtTrpRS": -1.737}
{"compound": "Cc1nc(CN2CCOC3(CCCC3)C2)oc1C", "CoaBC": 0.4959, "MtTrpRS": 2.203}
{"compound": "Cc1ccc(C#N)c(N2CCC(c3nccn3CCN(C)C)CC2)n1", "CoaBC": -8.036, "MtTrpRS": -0.3552}
{"compound": "Cc1noc(C)c1CN(C)C(=O)c1n[nH]c(N)c1-c1ccccc1", "CoaBC": -3.155, "MtTrpRS": -1.008}